# In PMC3663554:
# No constants are given. Whether binding was seen depends on the method and setting. In cells and extracts the contact can be indirect. Some results given as binding are weak or reduced against the parent protein; the word gives no strength.
# B1: signal peptide peptidase (SPP) (enzyme, UniProt Q8TCT9 1-377)
# chain: MDSALSDPHNGSAEAGGPTNSTTRPPSTPEGIALAYGSLLLMALLPIFFGALRSVRCARGKNASDMPETITSRDAARFPIIASCTLLGLYLFFKIFSQEYINLLLSMYFFVLGILALSHTISPFMNKFFPASFPNRQYQLLFTQGSGENKEEIINYEFDTKDLVCLGLSSIVGVWYLLRKHWIANNLFGLAFSLNGVELLHLNNVSTGCILLGGLFIYDVFWVFGTNVMVTVAKSFEAPIKLVFPQDLLEKGLEANNFAMLGLGDVVIPGIFIALLLRFDISLKKNTHTYFYTSFAAYIFGLGLTIFIMHIFKHAQPALLYLVPACIGFPVLVALAKGEVTEMFSYEESNPKDPAAVTESKEGTEASASKGLEKKEK
# Target: TAP-PS2 (human presenilin 2 with N-terminal Protein G-TEV-SBP tandem affinity purification tag) (human) (UniProt P49810)
# Assay: pull-down; SBP eluate fractions of the multistep TAP purifications of PS1- and PS2-containing γ-secretase complexes from HEK293F, Western blot; loading normalised on Pen-2 and nicastrin
binder,measurement,value
B1,binding,binds
